# Assay results from the supplement of paper PMC8728848.
# The other results are listed elsewhere or left out.
# B1: PX14351B-bth-512-36-512 (Bacteroides thetaiotaomicron) (protein)
# chain: ASETQQWKTLEDTRSALMGVYGLTRAALADNNTHWICGDLRKGDFTVYKRSDLQAVSDNELNKPYDLLKKVSNWRRFYAVINAASVFMEKAPRTVELDRSYSEQNLKYDIAQVRALRAFAYFYMVRIWGDVPLVTYSYDNGTFPSMPRTDAQTVLSYAKAELLTAIEDLPYQYGTQTNLYYGSYGAQWQGKLFNKLSAYSVLAHICAWQGNYAEAETYSAFIIDHASEINAKYTSIADLTSETGLFYSNASVKGSRILGFNFAHNDNEATQSGHLEQLTLAYPLVQKSYPEIYISKDSLFSIFTNFDDLRFGIIDTIKYSSYYVQNLNEETPVFSKIKIIQDGSAKDNDFGVFGSSIVFTRLEDITLLRAEALCALNRSTEAVSYLNMIRTNRGLREVSFKKDFGNNRESLIAEIFEERRRELMGEGWRWYDLVRRQKLMKDNEAFLRLISSGGIYWPVSEDIITANSQIEQNEFWK
# Experiments:
# Experiment in all cases: glycan array binding signal (z-score within array); higher = stronger binding
# Conditions in all cases: glycan notation: IUPAC condensed, linker removed
# [1] = molecular target: Man(a1-3)[Man(a1-6)]Man(b1-4)GlcNAc(b1-4)GlcNAc
# How it was run: (§1)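 Glycan array data were curated from 3228 arrays in the Consortium for Functional Glycomics database and kept only where the protein sequence was available. Glycan names were converted to IUPAC-condensed notation, and columns mapping to the same glycan were averaged. The binding signal is a within-array Z-score, averaged across arrays of the same protein sequence at different concentrations or buffers and across linkers. Negative Z-scores can be read as non-binding.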
# [2] = molecular target: Man(a1-3)[Man(a1-6)]Man(b1-4)GlcNAc(b1-4)[Fuc(a1-6)]GlcNAc
# How it was run: as §1
# Man(a1-6)Man = molecular target: Man(a1-6)Man
# How it was run: as §1
# Man(b1-4)GlcNAc = molecular target: Man(b1-4)GlcNAc
# How it was run: as §1
# MurNAc(b1-4)GlcNAc = molecular target: MurNAc(b1-4)GlcNAc
# How it was run: as §1
# Neu5Ac(a2-3)Gal = molecular target: Neu5Ac(a2-3)Gal
# How it was run: as §1
# [3] = molecular target: Neu5Ac(a2-3)Gal(b1-3)GalNAc
# How it was run: as §1
# [4] = molecular target: Neu5Ac(a2-3)Gal(b1-3)GalNAc(b1-3)Gal(a1-4)Gal(b1-4)Glc
# How it was run: as §1
# [5] = molecular target: Neu5Ac(a2-3)Gal(b1-3)GalNAc(b1-4)[Neu5Ac(a2-3)]Gal(b1-4)Glc
# How it was run: as §1
# [6] = molecular target: Neu5Ac(a2-3)Gal(b1-3)GalNAc(b1-4)[Neu5Ac(a2-8)Neu5Ac(a2-3)]Gal(b1-4)Glc
# How it was run: as §1
# [7] = molecular target: Neu5Ac(a2-3)Gal(b1-3)GalNAc6S
# How it was run: as §1
# [8] = molecular target: Neu5Ac(a2-3)Gal(b1-3)GlcNAc
# How it was run: as §1
# [9] = molecular target: Neu5Ac(a2-3)Gal(b1-3)GlcNAc(b1-2)Man
# How it was run: as §1
# [10] = molecular target: Neu5Ac(a2-3)Gal(b1-3)GlcNAc(b1-2)Man(a1-3)[GlcNAc(b1-4)][Neu5Ac(a2-3)Gal(b1-3)GlcNAc(b1-2)Man(a1-6)]Man(b1-4)GlcNAc(b1-4)GlcNAc
# How it was run: as §1
# [11] = molecular target: Neu5Ac(a2-3)Gal(b1-3)GlcNAc(b1-2)Man(a1-3)[Neu5Ac(a2-3)Gal(b1-3)GlcNAc(b1-2)Man(a1-6)]Man(b1-4)GlcNAc(b1-4)GlcNAc
# How it was run: as §1
# [12] = molecular target: Neu5Ac(a2-3)Gal(b1-3)GlcNAc(b1-3)Gal(b1-3)GlcNAc
# How it was run: as §1
# [13] = molecular target: Neu5Ac(a2-3)Gal(b1-3)GlcNAc(b1-3)Gal(b1-4)GlcNAc
# How it was run: as §1
# [14] = molecular target: Neu5Ac(a2-3)Gal(b1-3)GlcNAc(b1-3)GalNAc
# How it was run: as §1
# [15] = molecular target: Neu5Ac(a2-3)Gal(b1-3)GlcNAc(b1-4)Gal(b1-4)Glc
# How it was run: as §1
# [16] = molecular target: Neu5Ac(a2-3)Gal(b1-3)GlcNAc(b1-6)GalNAc
# How it was run: as §1
# [17] = molecular target: Neu5Ac(a2-3)Gal(b1-3)GlcNAc6S
# How it was run: as §1
# [18] = molecular target: Neu5Ac(a2-3)Gal(b1-3)[Fuc(a1-4)]GlcNAc
# How it was run: as §1
# [19] = molecular target: Neu5Ac(a2-3)Gal(b1-3)[Fuc(a1-4)]GlcNAc(b1-3)Gal(b1-3)[Fuc(a1-4)]GlcNAc
# How it was run: as §1
# [20] = molecular target: Neu5Ac(a2-3)Gal(b1-3)[Fuc(a1-4)]GlcNAc(b1-3)Gal(b1-4)[Fuc(a1-3)]GlcNAc
# How it was run: as §1
# [21] = molecular target: Neu5Ac(a2-3)Gal(b1-3)[GlcNAc(b1-6)]GalNAc
# How it was run: as §1
# [22] = molecular target: Neu5Ac(a2-3)Gal(b1-3)[Neu5Ac(a2-6)]GalNAc
# How it was run: as §1
# [23] = molecular target: Neu5Ac(a2-3)Gal(b1-3)[Neu5Ac(a2-6)]GlcNAc(b1-3)[Fuc(a1-3)[Gal(b1-4)]GlcNAc(b1-6)]Gal(b1-4)Glc
# How it was run: as §1
# [24] = molecular target: Neu5Ac(a2-3)Gal(b1-3)]Neu5Ac(a2-3)Gal(b1-4)]GlcNAc
# How it was run: as §1
# Neu5Ac(a2-3)Gal(b1-4)Glc = molecular target: Neu5Ac(a2-3)Gal(b1-4)Glc
# How it was run: as §1
# [25] = molecular target: Neu5Ac(a2-3)Gal(b1-4)GlcNAc
# How it was run: as §1
# [26] = molecular target: Neu5Ac(a2-3)Gal(b1-4)GlcNAc(b1-2)Man
# How it was run: as §1
# [27] = molecular target: Neu5Ac(a2-3)Gal(b1-4)GlcNAc(b1-2)Man(a1-3)[GlcNAc(b1-4)][Neu5Ac(a2-3)Gal(b1-4)GlcNAc(b1-2)Man(a1-6)]Man(b1-4)GlcNAc(b1-4)GlcNAc
# How it was run: as §1
# [28] = molecular target: Neu5Ac(a2-3)Gal(b1-4)GlcNAc(b1-2)Man(a1-3)[Neu5Ac(a2-3)Gal(b1-4)GlcNAc(b1-2)Man(a1-6)]Man(b1-4)GlcNAc(b1-4)GlcNAc
# How it was run: as §1
binder,measurement,setting,value
B1,glycan array binding signal (z-score),[1],-0.362
same,glycan array binding signal (z-score),[2],-0.118
same,glycan array binding signal (z-score),Man(a1-6)Man,-0.091
same,glycan array binding signal (z-score),Man(b1-4)GlcNAc,0.141
same,glycan array binding signal (z-score),MurNAc(b1-4)GlcNAc,-0.268
same,glycan array binding signal (z-score),Neu5Ac(a2-3)Gal,-0.212
same,glycan array binding signal (z-score),[3],-0.239
same,glycan array binding signal (z-score),[4],0.331
same,glycan array binding signal (z-score),[5],-0.236
same,glycan array binding signal (z-score),[6],-0.112
same,glycan array binding signal (z-score),[7],-0.377
same,glycan array binding signal (z-score),[8],-0.119
same,glycan array binding signal (z-score),[9],0.134
same,glycan array binding signal (z-score),[10],-0.221
same,glycan array binding signal (z-score),[11],-0.326
same,glycan array binding signal (z-score),[12],-0.346
same,glycan array binding signal (z-score),[13],-0.273
same,glycan array binding signal (z-score),[14],0.034
same,glycan array binding signal (z-score),[15],-0.301
same,glycan array binding signal (z-score),[16],-0.15
same,glycan array binding signal (z-score),[17],-0.085
same,glycan array binding signal (z-score),[18],0.092
same,glycan array binding signal (z-score),[19],-0.274
same,glycan array binding signal (z-score),[20],-0.172
same,glycan array binding signal (z-score),[21],-0.16
same,glycan array binding signal (z-score),[22],-0.263
same,glycan array binding signal (z-score),[23],-0.369
same,glycan array binding signal (z-score),[24],-0.36
same,glycan array binding signal (z-score),Neu5Ac(a2-3)Gal(b1-4)Glc,-0.065
same,glycan array binding signal (z-score),[25],-0.312
same,glycan array binding signal (z-score),[26],-0.275
same,glycan array binding signal (z-score),[27],-0.214
same,glycan array binding signal (z-score),[28],0.344

# Reformatted tab-delimited: entries from further up.
binder	measurement	setting	value
B1	glycan array binding signal (z-score)	Man(a1-6)Man	-0.091
same	glycan array binding signal (z-score)	[25]	-0.312
